Measurements taken from PubChem BioAssay AID504444 (National Center for Advancing Translational Sciences (NCATS), 2011).
The campaign covered roughly 360,000 compounds. About 7,500 (2.1%) were called active. The shares of active, inactive and inconclusive entries below differ from those in the screen. Calls come from the whole dose curve; as a rule, active = well fitted inhibition curve with a large enough effect; inconclusive = small, poorly fitted or top-dose-only effect, or effect the other way; inactive = flat fitted curve, though single readings scatter. Where the call is inconclusive, the potency comes from a doubtful curve fit.

experiment: Nrf2 qHTS screen for inhibitors; conditions: A549 ARE-Fluc reporter, luciferase luminescence, 18-24 h; activity change, negative = inhibition: at 46 µM (top of the series); note: nearly all actives have a fitted effect of over 60% in size
In short: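 A549 ARE_Fluc cells, 5000/well, 5% FBS OPTI-MEM; compounds in dose-response, 18-24 h at 37 °C/5% CO2; CellTiter-Fluor viability read (Ex 405/Em 525), then BugLite luciferase luminescence = Nrf2 activity.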
% is set by controls: 0 for no effect and ±100 for the full control effect; potency is the fitted concentration of half-maximal effect.

Compound | Potency | activity change, negative = inhibition
CC(C)(C)OC(=O)N1CCC(c2c(C(=O)NC3CCN(Cc4ccccc4)CC3)cnn2-c2ccc(F)cc2F)CC1 | inconclusive: 14.6 µM [activator, partial curve] | 
O=C(Nc1ccc2c(c1)C(=O)NC2=O)c1ccc2ncsc2c1 | inconclusive: 23.1 µM [activator, partial curve, poor fit] | 
CCOc1ccc(NC(=O)C(=O)c2cc(C)n(-c3cc(C)cc(C)c3)c2C)cc1 | inconclusive: 18.4 µM [activator, partial curve, poor fit] | 
COc1ccc(S(=O)(=O)Nc2ccc(Cc3ccncc3)cc2)cc1C | inconclusive: 18.4 µM [falling, single point] | 
CC(=O)c1ccc(NC(=S)NC(=O)/C=C/c2ccc(F)cc2)cc1 |  | inactive: 8.44%
Cc1ccc(NC(=O)C2CCCN(S(=O)(=O)c3ccc4c(c3)oc(=O)n4C)C2)cc1Cl (stereo not given) |  | inactive: -3.71%
COc1ccc(-c2cc(C(=O)NCCc3ccccc3)c3c(-c4ccccc4)[nH]nc3n2)cc1OC |  | inactive: 11.6%
Cc1cccc(/C=N/NC(=O)Cc2ccc(Cl)cc2)c1O | inconclusive: 20.6 µM [falling, single point] | 
O=C(Nc1ccccc1)C(=O)Nc1ccc2c(c1)N(C(=O)C1CC1)CCC2 | inconclusive: 1.3 µM [activator, partial curve, poor fit] | 
O=C(/C=C\c1ccccc1)Nc1nccs1 | inconclusive: 0.461 µM [activator, full curve, poor fit] | 
COc1ccccc1N1CCN(CC(O)COc2ccc(S(=O)(=O)N3CCOCC3)cc2)CC1 (stereo not given) | inconclusive: 9.2 µM [falling, partial curve, poor fit] | 
COc1ccc(C(=O)C2CCCN(Cc3cnc(N4CCOCC4)s3)C2)cc1F (stereo not given) | inconclusive: 29.1 µM [falling, single point] | 
COc1cccc(/C=C2\SC(=S)N(CCC(=O)N3CCCCC3CCO)C2=O)c1 (stereo not given) | inconclusive: 32.6 µM [falling, single point] | 
CCCn1c(=N)n(CC(=O)c2cccs2)c2ccccc21 | inconclusive: 6.51 µM [falling, full curve, poor fit] | 
ON(CCc1ccccn1)CCc1ccccn1 | inconclusive: 11.6 µM [activator, partial curve] | 
O=[N+]([O-])c1cccc2ncccc12 |  | inactive: -7.71%
Cc1ccc(/C=C2\SC(=S)N(C3CCS(=O)(=O)C3)C2=O)o1 (stereo not given) | inconclusive: 23.1 µM [falling, partial curve, poor fit] | 
Cc1ccc(C(=O)NCC(=O)OCC(=O)N(CC(C)C)c2c(N)n(Cc3ccccc3)c(=O)[nH]c2=O)cc1C |  | inactive: -2.34%
O=C(c1cnn(-c2cccc(F)c2)c1)c1ccccc1O | inconclusive: 18.4 µM [activator, single point] | 
COC1C(C)=C(C)C(=O)N1Cc1ccc(F)cc1 (stereo not given) | inconclusive: 18.4 µM [activator, partial curve, poor fit] | 
O=C(c1ccco1)N1CCN(CC(O)Cn2c3ccccc3c3ccccc32)CC1 (stereo not given) |  | inactive: 6.21%
O=C(CC1Sc2ccccc2NC1=O)OCC(=O)N1CCc2ccccc21 (stereo not given) | inconclusive: 18.4 µM [activator, partial curve] | 

Compound | Potency | activity change, negative = inhibition
CCSc1nnc(NC(=O)CSc2nnc(CNC(=O)c3ccc(OC)cc3)o2)s1 | inconclusive: 4.11 µM [falling, partial curve, poor fit] | 
O=C(CCC1CCCN(C(=O)c2ccc3[nH]ccc3c2)C1)N1CCN(c2ccccn2)CC1 (stereo not given) | inconclusive: 7.31 µM [falling, partial curve, poor fit] | 
CN(CC(=O)Nc1ccc(N2CCOCC2)cc1)C(=O)CCc1ccccc1Cl |  | inactive: 0.509%
O=C(Cn1ccc2cc(S(=O)(=O)N3CCCCC3)ccc21)NCc1ccccc1F | inconclusive: 1.46 µM [activator, partial curve] | 
COc1ccc2[nH]c(=O)c(CN(Cc3cccs3)Cc3nnnn3Cc3ccccc3)cc2c1 | inconclusive: 23.1 µM [falling, single point] | 
CCCCC1=CC2=CC(=O)C(C)(OC(=O)CC)C(=O)C2=CN1CCc1ccc(Br)cc1 (stereo not given) | inconclusive: 16.4 µM [falling, partial curve, poor fit] | 
N#CC(C#N)=NNc1ccc([N+](=O)[O-])cc1 |  | inactive: -3.35%
CN1CCN(/N=C/c2ccc(N(c3ccccc3)c3ccccc3)cc2)CC1 | inconclusive: 32.6 µM [falling, single point] | 
CC(=O)N1c2ccc(S(=O)(=O)N3CCC(C(=O)NC4CCCCC4C)CC3)cc2CC1C (stereo not given) |  | inactive: -27.4%
N#Cc1ccc(NS(=O)(=O)c2ccc3c(c2)CCC(=O)N3)cc1 |  | inactive: -0.182%
COc1ccc(-n2ncc3c(NCc4cccnc4)ncnc32)cc1 | inconclusive: 0.0731 µM [activator, partial curve, poor fit] | 
CCN(CC)CCCNC(=O)c1ccc2c3n(nc2c1)-c1ccc(Cl)cc1CO3 | inconclusive: 1.84 µM [activator, full curve] | 
COc1ccc(CN2CCN(c3cccc(C)c3C)CC2)cc1OC | inconclusive: 4.11 µM [falling, full curve, poor fit] | 
O=C(NCCN1CCOCC1)C(=O)NCC1OCCCN1S(=O)(=O)c1cc(F)ccc1F (stereo not given) |  | inactive: 0.796%
CCOC(=O)c1nc(NCc2cccc(OC)c2)c2ccccc2n1 | inconclusive: 29.1 µM [falling, single point] | 
O=C(NN=Cc1cc(Cl)ccc1[N+](=O)[O-])c1ccco1 |  | inactive: 22.1%
CC(C)(C)c1ccc(Oc2ccc(NC(=O)C3CC=CCC3C(=O)O)cc2)cc1 (stereo not given) | inconclusive: 18.4 µM [falling, single point] | 
Cc1cc(OCC(=O)Nc2ccncc2)ccc1[N+](=O)[O-] | inconclusive: 16.4 µM [falling, single point] | 
C=C(C)COc1ccc(-c2nc(N)nc(C)c2-c2ccc(OC)cc2)c(O)c1 |  | inactive: 8.71%
CC1=NN(C(C#N)c2ccc(F)cc2)C(C)(C)C1 (stereo not given) | inconclusive: 18.4 µM [activator, partial curve, poor fit] | 
COc1cccc(C2c3c(ncn(-c4ccc(Br)cc4)c3=N)Oc3ccc4ccccc4c32)c1 (stereo not given) |  | inactive: -13.3%
CC1CCN(S(=O)(=O)c2cccc(C(=O)Nc3nccs3)c2)CC1 | inconclusive: 16.4 µM [falling, single point] | 

Structures shown so far that contain a tert-butyl group, in the order listed:
Compound | Potency | activity change, negative = inhibition
CC(C)(C)OC(=O)N1CCC(c2c(C(=O)NC3CCN(Cc4ccccc4)CC3)cnn2-c2ccc(F)cc2F)CC1 | inconclusive: 14.6 µM [activator, partial curve] | 
CC(C)(C)c1ccc(Oc2ccc(NC(=O)C3CC=CCC3C(=O)O)cc2)cc1 (stereo not given) | inconclusive: 18.4 µM [falling, single point] | 

Next results

Compound | Potency | activity change, negative = inhibition
CC(NC(=O)c1noc2c1CCCC2)c1ccccc1 (stereo not given) | inconclusive: 16.4 µM [activator, partial curve, poor fit] | 
Cc1ccccc1NCc1nc2ccccc2n1C | inconclusive: 3.66 µM [activator, partial curve] | 
O=C(c1ccco1)N1CCCC(N2CCN(c3cccc(C(F)(F)F)c3)CC2)C1 (stereo not given) | inconclusive: 20.6 µM [falling, single point] | 
Cc1ccccc1NC(=O)CSc1nc2ccc(NC(=O)c3cccs3)cc2s1 | inconclusive: 20.6 µM [falling, single point] | 
C=CCn1c(N2CCCCCC2)nc2c1c(=O)n(C)c(=O)n2C | inconclusive: 18.4 µM [falling, single point] | 
CCN(CC)S(=O)(=O)c1cccc(C(=O)NCC2CCCCC2)c1 | inconclusive: 4.11 µM [activator, partial curve, poor fit] | 
COC(=O)C1CCN(C(=O)/C=C/c2ccc(OC)cc2)CC1 | inconclusive: 5.62 µM [activator, partial curve, poor fit] | 
CSc1cccc(NC(=O)c2cccc(N3CCCS3(=O)=O)c2)c1 | inconclusive: 5.17 µM [activator, full curve, poor fit] | 
COc1ccc(-c2ccc3c(c2)S(=O)(=O)c2cccc(C(=O)NCCOc4ccccc4)c2C3=O)cc1OC | inconclusive: 29.1 µM [falling, single point] | 
O=C(Nc1nnc(C2CC2)s1)c1cccs1 | inconclusive: 16.4 µM [activator, single point] | 
Cc1ccc(-c2csc(NC(=O)C3=COCCO3)n2)cc1C | inconclusive: 18.4 µM [falling, single point] | 
COc1ccc(C2/C(=C(\O)c3ccc(OC)c(Cl)c3)C(=O)C(=O)N2CCN(C)C)cc1 (stereo not given) | inconclusive: 29.1 µM [activator, single point] | 
CCC1=Nc2cc(C(=O)NC3CCC(C)CC3)ccc2Sc2ccc(C)cc21 (stereo not given) | inconclusive: 5.17 µM [activator, full curve] | 
CCC1CN(C(=O)N2CCC(C(=O)NCc3cccc(OC)c3OC)CC2)c2cc(C)ccc2O1 (stereo not given) | inactive | 
Cc1cccnc1CN1CCN(C(=O)CCc2nnc(CCc3ccccc3)o2)CC1 | inconclusive: 25.9 µM [activator, single point] | 
COC(=O)c1ccc(CN(C)S(=O)(=O)c2cccs2)cc1 | inconclusive: 16.4 µM [activator, partial curve, poor fit] | 
CCc1c(C)nc(N2CCN(c3cccc(OC)c3)CC2)[nH]c1=O | inconclusive: 25.9 µM [falling, single point] | 
COc1ccccc1NC(=O)c1sc2nc(C)c(C(=O)Nc3ccc(C)cc3C)c(-c3ccco3)c2c1N | inconclusive: 20.6 µM [falling, partial curve, poor fit] | 
O=C(C1CCCN(S(=O)(=O)c2cccc3nsnc23)C1)N1CCN(c2ccccc2F)CC1 (stereo not given) | inconclusive: 29.1 µM [falling, single point] | 
CCOC(=O)c1[nH]c(CN2CCN(c3ccc(OC)cc3)CC2)c(C(=O)OCC)c1C |  | inactive: -15.7%
CCN(CC(=O)N1CCOCC1)S(=O)(=O)c1ccccc1 | inconclusive: 32.6 µM [activator, partial curve, poor fit] | 
